Experimental findings from paper PMC10777020, “The N1 domain of the peroxisomal AAA-ATPase Pex6 is required for Pex15 binding and proper assembly with Pex1” (The Journal of Biological Chemistry, 2023) are described below.

Experiment [1] concerns the target T1, His-Pex6 (S. cerevisiae, UniProt P33760 1-1030).
T1 construct: Pex6, AAA-ATPase of S. cerevisiae; no limits stated for the construct; In all experiments it stood in a complex with Pex1-FLAG or a Pex1 variant; also called ScPex6; His-tagged Pex6; source: E. coli BL21*(DE3), co-expressed with Pex1-FLAG or its variants; in lysate, then purified (Ni-NTA, anti-FLAG, Superose6 Increase); not shown: His, N-terminal, kept
T1 sequence: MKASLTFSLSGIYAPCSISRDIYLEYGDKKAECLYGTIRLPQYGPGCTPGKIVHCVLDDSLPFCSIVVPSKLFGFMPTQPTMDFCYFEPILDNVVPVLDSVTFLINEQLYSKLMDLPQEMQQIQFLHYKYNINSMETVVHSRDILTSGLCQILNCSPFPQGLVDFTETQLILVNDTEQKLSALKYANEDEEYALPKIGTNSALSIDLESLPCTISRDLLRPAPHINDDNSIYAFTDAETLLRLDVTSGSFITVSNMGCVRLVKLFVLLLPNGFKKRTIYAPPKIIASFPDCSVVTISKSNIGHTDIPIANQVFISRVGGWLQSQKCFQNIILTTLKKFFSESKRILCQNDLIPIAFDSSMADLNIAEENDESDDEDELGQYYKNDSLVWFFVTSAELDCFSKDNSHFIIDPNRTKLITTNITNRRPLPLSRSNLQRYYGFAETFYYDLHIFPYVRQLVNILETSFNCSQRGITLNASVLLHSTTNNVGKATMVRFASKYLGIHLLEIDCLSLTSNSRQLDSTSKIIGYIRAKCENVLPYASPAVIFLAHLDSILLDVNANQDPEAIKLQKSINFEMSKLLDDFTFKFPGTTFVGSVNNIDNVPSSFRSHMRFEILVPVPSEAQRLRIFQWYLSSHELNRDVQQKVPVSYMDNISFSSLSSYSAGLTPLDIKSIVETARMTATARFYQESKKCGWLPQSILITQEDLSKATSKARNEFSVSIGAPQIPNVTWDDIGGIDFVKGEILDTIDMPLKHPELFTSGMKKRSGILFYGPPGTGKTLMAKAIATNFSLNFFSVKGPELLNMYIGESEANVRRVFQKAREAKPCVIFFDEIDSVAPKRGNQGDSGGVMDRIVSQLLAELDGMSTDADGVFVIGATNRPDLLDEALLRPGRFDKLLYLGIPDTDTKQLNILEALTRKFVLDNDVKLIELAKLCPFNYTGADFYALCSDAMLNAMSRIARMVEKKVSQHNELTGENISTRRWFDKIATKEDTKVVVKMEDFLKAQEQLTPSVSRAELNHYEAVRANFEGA
The experiment is described as follows: tandem affinity co-purification; Pex1-FLAG and His-Pex6 variants co-expressed in E. coli BL21*(DE3); lysate bound to Ni-NTA (His on Pex6), eluate applied to anti-FLAG agarose (FLAG on Pex1); buffers with 1 mM ATP.

For experiment [2], the target named is T1, His-Pex6. The experiment can be described thus: SEC; Superose6 Increase 10/300, GF buffer with 1 mM ATP, after the two-step affinity purification; both purified. A general note: Size exclusion chromatography separates by hydrodynamic size, large species first.
The target of experiment [3] is T2, ΔN1-Pex6 (His-tagged, lacks the first 184 amino acids) (S. cerevisiae) (UniProt P33760).
T2 sequence: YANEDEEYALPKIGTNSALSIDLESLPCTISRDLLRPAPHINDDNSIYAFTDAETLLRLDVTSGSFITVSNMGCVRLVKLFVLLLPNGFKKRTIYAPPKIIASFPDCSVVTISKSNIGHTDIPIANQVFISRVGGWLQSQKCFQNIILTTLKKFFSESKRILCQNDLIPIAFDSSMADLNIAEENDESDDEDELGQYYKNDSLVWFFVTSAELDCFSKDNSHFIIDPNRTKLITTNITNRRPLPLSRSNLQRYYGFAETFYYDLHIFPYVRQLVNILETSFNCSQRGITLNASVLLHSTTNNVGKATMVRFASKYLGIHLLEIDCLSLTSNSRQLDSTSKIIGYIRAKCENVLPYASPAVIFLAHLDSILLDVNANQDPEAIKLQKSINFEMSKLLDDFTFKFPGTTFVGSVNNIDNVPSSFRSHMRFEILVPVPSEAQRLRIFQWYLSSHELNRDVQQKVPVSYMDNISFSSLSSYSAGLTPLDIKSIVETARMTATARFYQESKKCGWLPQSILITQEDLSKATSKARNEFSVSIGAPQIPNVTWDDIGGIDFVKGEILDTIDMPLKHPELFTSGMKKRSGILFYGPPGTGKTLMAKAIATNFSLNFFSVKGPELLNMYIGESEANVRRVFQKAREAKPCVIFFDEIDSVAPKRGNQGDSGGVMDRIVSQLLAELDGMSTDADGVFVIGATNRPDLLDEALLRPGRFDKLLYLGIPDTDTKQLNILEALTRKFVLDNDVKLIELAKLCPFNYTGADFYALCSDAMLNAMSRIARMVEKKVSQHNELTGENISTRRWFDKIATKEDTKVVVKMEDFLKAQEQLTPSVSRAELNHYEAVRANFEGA
The experiment is described as follows: tandem affinity co-purification; Pex1-FLAG and His-Pex6 variants co-expressed in E. coli BL21*(DE3); lysate bound to Ni-NTA (His on Pex6), eluate applied to anti-FLAG agarose (FLAG on Pex1); buffers with 1 mM ATP.

Experiment [4] has as its target T1, His-Pex6. The experiment can be described thus: cryo-EM structure; Pex1-FLAG/His-Pex6 incubated with 1 mM ATP and mEOS-Pex15 1-309, hexamer peak of Superose6 Increase; GF buffer; no density for the substrate; both purified.

No constants are given. Whether binding was seen depends on the method and setting. Some results given as binding are weak or reduced against the parent protein; the word gives no strength. Where a sequence is shown, tags or fusion partners need not be part of it.

B1: Pex1-Δ941-967-FLAG (protein, UniProt P24004)
chain: MTTTKRLKFENLRIQFSNAIVGNFLRLPHSIINVLESTNYAIQEFGIAVHSHNSDIPIVHLGWDGHDSGSSENVVLINPVLATVYDLNQKSPLVDLYIQRYDHTHLATEVYVTPETSDDWEIIDANAMRFQNGEILHQTRIVTPGETLICYLEGIVTKFKIDRVEPSMKSARITDGSLVVVAPKVNKTRLVKAEYGHSNKTILKNGAIQLLKKVILRSTVCKMDFPKDNLFVVYISDGAQLPSQKGYASIVKCSLRQSKKSDSDNKSVGIPSKKIGVFIKCDSQIPENHIALSSHLWDAFFTHPMNGAKIKLEFLQMNQANIISGRNATVNIKYFGKDVPTKSGDQYSKLLGGSLLTNNLILPTEQIIIEIKKGESEQQLCNLNEISNESVQWKVTQMGKEEVKDIIERHLPKHYHVKETGEVSRTSKDEDDFITVNSIKKEMVNYLTSPIIATPAIILDGKQGIGKTRLLKELINEVEKDHHIFVKYADCETLHETSNLDKTQKLIMEWCSFCYWYGPSLIVLDNVEALFGKPQANDGDPSNNGQWDNASKLLNFFINQVTKIFNKDNKRIRVLFSGKQKTQINPLLFDKHFVSETWSLRAPDKHARAKLLEYFFSKNQIMKLNRDLQFSDLSLETEGFSPLDLEIFTEKIFYDLQLERDCDNVVTRELFSKSLSAFTPSALRGVKLTKETNIKWGDIGALANAKDVLLETLEWPTKYEPIFVNCPLRLRSGILLYGYPGCGKTLLASAVAQQCGLNFISVKGPEILNKFIGASEQNIRELFERAQSVKPCILFFDEFDSIAPKRGHDSTGVTDRVVNQLLTQMDGAEGLDGVYILAATSRPDLIDSALLRPGRLDKSVICNIPTESERLDILQAIVNSKDKDTGQKKFALEKNADLKLIAEKTAGFSGADLQGLCYNAYLKSVHRWLSAADQSEVVPGQDVVHETKTSTSAASELTAVVTINDLLEACQETKPSISTSELVKLRGIYDRFQKDRNGEMPNGENSIDIGSRLSLM
Take B1: the binding entry in experiment [1] and in experiment [2] was “binds” in each case.

B2: Pex1-FLAG (protein, UniProt P24004 1-1043)
chain: MTTTKRLKFENLRIQFSNAIVGNFLRLPHSIINVLESTNYAIQEFGIAVHSHNSDIPIVHLGWDGHDSGSSENVVLINPVLATVYDLNQKSPLVDLYIQRYDHTHLATEVYVTPETSDDWEIIDANAMRFQNGEILHQTRIVTPGETLICYLEGIVTKFKIDRVEPSMKSARITDGSLVVVAPKVNKTRLVKAEYGHSNKTILKNGAIQLLKKVILRSTVCKMDFPKDNLFVVYISDGAQLPSQKGYASIVKCSLRQSKKSDSDNKSVGIPSKKIGVFIKCDSQIPENHIALSSHLWDAFFTHPMNGAKIKLEFLQMNQANIISGRNATVNIKYFGKDVPTKSGDQYSKLLGGSLLTNNLILPTEQIIIEIKKGESEQQLCNLNEISNESVQWKVTQMGKEEVKDIIERHLPKHYHVKETGEVSRTSKDEDDFITVNSIKKEMVNYLTSPIIATPAIILDGKQGIGKTRLLKELINEVEKDHHIFVKYADCETLHETSNLDKTQKLIMEWCSFCYWYGPSLIVLDNVEALFGKPQANDGDPSNNGQWDNASKLLNFFINQVTKIFNKDNKRIRVLFSGKQKTQINPLLFDKHFVSETWSLRAPDKHARAKLLEYFFSKNQIMKLNRDLQFSDLSLETEGFSPLDLEIFTEKIFYDLQLERDCDNVVTRELFSKSLSAFTPSALRGVKLTKETNIKWGDIGALANAKDVLLETLEWPTKYEPIFVNCPLRLRSGILLYGYPGCGKTLLASAVAQQCGLNFISVKGPEILNKFIGASEQNIRELFERAQSVKPCILFFDEFDSIAPKRGHDSTGVTDRVVNQLLTQMDGAEGLDGVYILAATSRPDLIDSALLRPGRLDKSVICNIPTESERLDILQAIVNSKDKDTGQKKFALEKNADLKLIAEKTAGFSGADLQGLCYNAYLKSVHRWLSAADQSEVVPGNDNIEYFSINEHGRREENRLRLKTLLQQDVVHETKTSTSAASELTAVVTINDLLEACQETKPSISTSELVKLRGIYDRFQKDRNGEMPNGENSIDIGSRLSLM
For B2, the binding entry in experiment [1], in experiment [3] and in experiment [4] was “binds” each time.
